According to article PMC4354923:
These are yes or no findings as the source states them, for the method shown. For part of these data: Binding seen in cells or lysates may run through a third protein. Some binding calls cover weakened binding; strength is not graded here. For part of these data: Sequences can lack the tags named with a protein. Values belong to the binder of their own block, whether it stands above or below them.

Protein sequences, listed by entry. Tags and fused reporters are not part of them.
UniProt Q8BGW1: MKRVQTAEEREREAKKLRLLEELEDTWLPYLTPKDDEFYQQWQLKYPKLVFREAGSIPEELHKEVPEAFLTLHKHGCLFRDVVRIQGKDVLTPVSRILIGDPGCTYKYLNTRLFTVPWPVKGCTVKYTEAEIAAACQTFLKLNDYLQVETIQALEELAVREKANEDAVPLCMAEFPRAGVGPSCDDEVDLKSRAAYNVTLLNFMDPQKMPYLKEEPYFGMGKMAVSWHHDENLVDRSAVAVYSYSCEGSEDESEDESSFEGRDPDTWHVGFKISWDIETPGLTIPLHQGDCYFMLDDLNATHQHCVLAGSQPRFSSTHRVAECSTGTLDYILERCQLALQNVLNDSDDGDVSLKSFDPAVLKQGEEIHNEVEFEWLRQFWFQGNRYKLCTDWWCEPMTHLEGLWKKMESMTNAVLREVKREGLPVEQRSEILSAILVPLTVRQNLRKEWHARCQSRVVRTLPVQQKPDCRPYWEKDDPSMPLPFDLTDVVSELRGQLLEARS

Key:
[1] = target: endogenous Fto (mouse embryonic fibroblasts) (mouse (endogenous in MEFs)) (UniProt Q8BGW1); assay: co-IP; endogenous proteins in MEFs from wild type mice (Fto null MEFs as negative control), grown for 24 h; immunoprecipitation with antibodies against FTO or TRIP4, western blot
[2] = target: FLAG tagged FTO (UniProt Q9C0B1); assay: co-IP; HEK293 cells transiently transfected with vector alone or Flag-FTO, harvested after 48 h; Flag immunoprecipitation of cell extracts, elution with glycine buffer (pH 3.0) at 4 °C for 30 min, western blot
[3] = target: FTO full length, fusion to the GAL4 DNA-binding domain (pGBKT7-FTO) (human) (UniProt Q9C0B1); assay: two-hybrid; Matchmaker Gold Yeast Two-Hybrid System (Clontech), mating assay; FTO on GAL4 DNA-BD (pGBKT7), TRIP4 on GAL4 AD (pGADT7); four reporters (AUR1-C, ADE2, HIS3, MEL1), five-point grading by growth on selective medium; reverse orientation also assayed for a selection, comparable results

binding [1]: binds
B1: endogenous Trip4 (mouse embryonic fibroblasts) (protein, UniProt Q9QXN3 1-581)
chain: MAVAGAAYREPLVHWCTQQLQKTFALDVSEEIIQYVLSIENAEEIREYVTDLLQGNEGKKGQFIEDLITKWQKNDQEFISDSFQQCLRKDEILDGQRSVDQLKRSRRKGRNKQEVPAFPEPDVAVEVKTPLDLAKAQESNNSVKKKTRFVNLYTREGQDKLAVLLPGRHPCDCLGQKHKLINNCLVCGRIVCEQEGSGPCLFCGSLVCTNEEQDILQRDSNKSQKLLKKLMSGAETSGKVDVSTKDLLPHQESRMKSGLEKAIKHKEKLLEFDRTSIRRTQVIDDESDYFASDSNQWLSKVEREMLQKREEELRELRHASRLSKKVTIDFAGRKILEDENPLAEYHSRLDETIQAIASGTLNQSLVTLDRSCEEPLGVLVNPNMYQASPQWVDNTGSTPQKKTSLSAGPRLEPSLHQHQLRIQDQEFQEGFDGGWCLSMHQPWASLLVRGIKRVEGRSWYTPHRGRLWIAATGKRPSPQEVSELQATYRLLRGKDVEFPNDYPSGCLLGCVDLIDCLSQKQFQEQFPDISQESDSSFVFICKNPQEMVVKFPIKGNPKIWKLDSKIHQGAKKGLMKQNKAV

binding [2]: binds
B2: Thyroid receptor interacting protein 4 (TRIP4), in HEK293 cell extract (protein, UniProt Q15650 1-581)
chain: MAVAGAVSGEPLVHWCTQQLRKTFGLDVSEEIIQYVLSIESAEEIREYVTDLLQGNEGKKGQFIEELITKWQKNDQELISDPLQQCFKKDEILDGQKSGDHLKRGRKKGRNRQEVPAFTEPDTTAEVKTPFDLAKAQENSNSVKKKTKFVNLYTREGQDRLAVLLPGRHPCDCLGQKHKLINNCLICGRIVCEQEGSGPCLFCGTLVCTHEEQDILQRDSNKSQKLLKKLMSGVENSGKVDISTKDLLPHQELRIKSGLEKAIKHKDKLLEFDRTSIRRTQVIDDESDYFASDSNQWLSKLERETLQKREEELRELRHASRLSKKVTIDFAGRKILEEENSLAEYHSRLDETIQAIANGTLNQPLTKLDRSSEEPLGVLVNPNMYQSPPQWVDHTGAASQKKAFRSSGFGLEFNSFQHQLRIQDQEFQEGFDGGWCLSVHQPWASLLVRGIKRVEGRSWYTPHRGRLWIAATAKKPSPQEVSELQATYRLLRGKDVEFPNDYPSGCLLGCVDLIDCLSQKQFKEQFPDISQESDSPFVFICKNPQEMVVKFPIKGNPKIWKLDSKIHQGAKKGLMKQNKAV

binding [3]: binds
B3: TRIP4 full length, fusion to the GAL4 activation domain (pGADT7-TRIP4) (protein, UniProt Q15650 1-581)
chain: B2 chain
